Results published in the supplement of paper PMC5949888.
Most values lie at the floor of the assay. Slopes are relative: functional sequences can read slightly below zero.

System: Saccharomyces cerevisiae PS128 hsf1 delta, HSF1(1-493) fusion
Experiment: growth estimate (transactivation domain function in HSF1 fusion, heat-shock survival) (a.u. (slope of normalised read count over time)); higher = stronger growth at 37°C, i.e. more transactivation activity
Settings: library: random library

Substance	growth estimate
HGTARLGRGRRQIV	< -0.25
DYGYSG	< -0.25
SWKWS	0.0639
PDIMESTRLETKTVAPLSRH	< -0.25
LEVGPAPASGLMGSYVPGAD	< -0.25
ACFLFI	< -0.25
DTQLRMWSCLVDCAISIAGV	< -0.25
FNSYTCIGVGHKPVF	< -0.25
MSSALARPQPEGLNYGQ	< -0.25
QPRLGHNASGNVKSLQAQPA	< -0.25
LFAAGKPVCGVGVGRSLRFL	< -0.25
WKGYQISCAGRR	< -0.25
CGRR	< -0.25
IWTYTNFRANLSRG	< -0.25
FSRIK	< -0.25
VQFLL	< -0.25
AQANLVSGLITIHQLLPSCS	< -0.25
LYSNVTKCGMHWAEKYWVKG	< -0.25
FCRAAFGFGPHTCANRVSAL	< -0.25
ERWNQLLLSCCQL	< -0.25
ERD	< -0.25
LTTSVVG	< -0.25
SLCLDCTVRVSASRRKR	< -0.25
WPVFWHDREP	< -0.25
PIVGRYLFK	< -0.25
HGDSRVLCS	< -0.25

Substance	growth estimate
FRLLAYLTCRSGACIYAEVG	< -0.25
EPSPVRAICFWYGPLELGHL	< -0.25
PSFGFARFSSQVPH	< -0.25
LSTVQMKG	< -0.25
YLKASPRGGT	< -0.25
SLRTALRLPNG	< -0.25
RFNFIICAATDHSELHLRKR	< -0.25
SPLCPVAISQEIHLTSPGIG	< -0.25
RGCL	-0.246
STSCRALSLFTNGIAGTHTG	< -0.25
FPEAAHEYGLCCRLSFGGPS	< -0.25
TSWKAHGVLQDGTSVDLSCR	< -0.25
WSYLIFAFHRRWIPQYIT	< -0.25
EGVASRAGGRSAFIPGTL	< -0.25
VNEF	< -0.25
PTQRPMPLLTIELKGLPLAP	< -0.25
CGSFTNVERCSYCLGESSFD	< -0.25
KGGLSRVAISPRSNV	< -0.25
VGIGFHLAWRAATLLVLM	< -0.25
ELNKRSPVIPLS	< -0.25
ASSKQTGSISH	< -0.25
RLRVYYTRRQ	< -0.25
GCL	< -0.25
SLRPR	< -0.25
YVPSYIESSHQDIGSKRKYC	< -0.25
NLTR	< -0.25

Substance	growth estimate
IKVHT	< -0.25
RNARIASATAREHRLSSADA	< -0.25
RRIHVKWGVLRKAAAVGSAV	< -0.25
RVLCDVSSISGISLILVFFL	< -0.25
DNNGILYLNTCLRPRERRSD	< -0.25
NLQ	< -0.25
PRV	< -0.25
ISQRA	< -0.25
DARVPYRRAQG	< -0.25
TSKDPTLP	< -0.25
KRFTHRLSPVRLQGRRKLPE	< -0.25
GAPMPKAPTVLSTLNGRSIA	< -0.25
VSR	< -0.25
RNYPKTNDHTYIGPVRDSPL	< -0.25
DGSGAKRD	< -0.25
RQNTILLNVLFN	< -0.25
FDLACSGPKDSRT	-0.245
LQVIP	-0.243
NHMDAAPSKARDCRKDFVSG	< -0.25
SIDKARTVCCGRYQSKANRA	< -0.25
HKR	< -0.25
PTLRSILRTTDQSV	< -0.25
HRFPGLVALPVHYDHVCDPT	< -0.25
MHTGKC	< -0.25
LRRKVILRLSAESFDFPTFY	< -0.25
TALNHTCVGKR	< -0.25

An excerpt of these results, field by field:
FDLACSGPKDSRT
  growth estimate = -0.245
LQVIP
  growth estimate = -0.243
NHMDAAPSKARDCRKDFVSG
  growth estimate = < -0.25

Continuation:

Substance	growth estimate
ECTQVDWLGSVLLDATGDVG	< -0.25
VPLVRFSISEVCLIFMTEHN	< -0.25
RNEF	< -0.25
DQNHRHRQYQLGFSF	< -0.25
RACSQRGGM	< -0.25
FAKRQTFRIQVARAGGLGAC	< -0.25
VMILGEVRFRAEAMEYHTVT	< -0.25
TLHTG	< -0.25
TMWRSRPTRVSIARGSNDS	< -0.25
LWENQPHGHGL	< -0.25
IPCRRRGSQDPEASSP	< -0.25
LGNTSPESCRSQRSPERGEH	< -0.25
SLTGVCPEPPDFFS	< -0.25
RVVCQESPT	< -0.25
RYKDNSVTLGIDAVTASGLV	< -0.25
VLTGSVLAGNIYYRAKKGTG	< -0.25
DEPDV	< -0.25
RSRFLCALGTDCRISSRIRP	< -0.25
RFES	< -0.25
VAE	< -0.25
GGLHGPIKLIRKSVGKS	< -0.25
MGMRNAF	< -0.25
TSNLLVFAVHTGRGMDAGLI	< -0.25
DMRSPGRECHGG	< -0.25
